No constants are given. Whether binding was seen depends on the method and setting.
Key:
[1] = molecular target: LMO4 first LIM domain (two-hybrid construct) (mouse); assay: two-hybrid; S. cerevisiae AH109, co-transformed; spotted on low-stringency interaction plates (-L/-W/-H) and growth control plates
[2] = molecular target: LMO4 second LIM domain (two-hybrid construct) (mouse); assay: as above

- binding [1]: no binding
- binding [2]: no binding
B1: Deformed epidermal autoregulatory factor-1 (DEAF1), residues 45-566 (domain or fragment, UniProt Q9Z1T5-1 45-566)
chain: DEDSEEDADSEAERETRRVTAVAVMAAESGHMDMGTEALPSPDEAAAAAAAFAEVTTVTVANVGSSADNVFTTSVANAASISGHVLSGRTALQIGDSLNTEKATLIVVHTDGSIVETTGLKGPAAPLTPGPQSPPTPLAPGQEKGGTKYNWDPSVYDSELPVRCRNISGTLYKSRLGSGGRGRCIKQGENWYSPTEFEAMAGRASSKDWKRSIRYAGRPLQCLIQDGILNPHAASCTCAACCDDMTLSGPVRLFVPYKRRKKENELPTTPVKKDSPKNITLLPATAATTFTVTPSGQITTSGALTFDRASTVEATAVISESPAQGDVFAGATVQEAGVQPPCRVGHPEPHYPGYQDSCQIAPFPEAALPTSHPKIVLTSLPALAVPPSTPTKAVSPTVVSGLEMSEHRSWLYLEEMVNSLLNTAQQLKTLFEQAKQASSCREAAVTQARMQVDTERKEQSCVNCGREAMSECTGCHKVNYCSTFCQRKDWKDHQHVCGQSASVTVQADDVHVEESVIEKVAV

— PMC4195752, “The Structure of an LIM-Only Protein 4 (LMO4) and Deformed Epidermal Autoregulatory Factor-1 (DEAF1) Complex Reveals a Common Mode of Binding to LMO4” (PLoS ONE, 2014)
